For at least one compound, name, drawing or mass did not settle the structure.
Assay: Formation and TEM size of amine-passivated Au nanoparticles
Assay type: physicochemical
Conditions: size of the Au nanoparticle formed with the named amine compound as ligand, same synthesis conditions
Protocol: In a typical synthesis of water soluble nanoparticles Au:MTX, 5 μmol of HAuCl4 and 25 μmol of MTX were dispersed with brief sonication in 2 mL methanol in a tri-neck 15 mL flask on ice water (0° C.) bath under Ar purge. After 1 hour of stirring at 700 rpm, 0.5 mL of freshly prepared 0.11 M NaBH4 on ice was added drop-wise at 1200 rpm. After ˜1 hour, stirring speed was reduced to 700 rpm and kept for additional ˜30 minutes.
The reacted solution was centrifuged at 4° C. at 16,100×g for 15 minutes twice, with the addition of 4:1 (volume) mixture of methanol and water, and ethanol respectively. This set of two step centrifugation was repeated at least 3 times, and then the precipitate was re-dispersed in water to obtain aqueous solutions. The aqueous solution was further purified using 3 k ultra centrifugal filter (Millipore, Billerica, Mass.). […]

## C[C@H]1c2cccc(O)c2C(=O)C2=C(O)[C@]3(O)C(=O)C(C(N)=O)=C(O)[C@@H](N(C)C)[C@@H]3[C@@H](O)[C@@H]21 [doxycycline, reference compound]
  nanoparticle (formation of monolayer-protected Au nanoparticles): 1.7 ± 0.7 nm

From patent US20150231077A1, “AMINE PASSIVATED NANOPARTICLES FOR CANCER TREATMENT AND IMAGING” (THE CLEVELAND CLINIC FOUNDATION, priority 2014, published 2015)
